PubChem BioAssay AID1671195 – Yale University, 2021

- Purpose: 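Knockdowns that increase or decrease uptake of fluorescent LDL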 (primary screen)
- Cell system: human Huh7 hepatoma cells
- Knock-down reagent: siRNA pool against human genes, 18 nM
- Duration: about 2 to 2.5 days of knockdown, then 8 h LDL uptake
- Treatment: DiI-labelled LDL at 30 µg/ml for 8 h, in lipoprotein-deficient serum medium
- Measurement: 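Fluorescent LDL signal imaged in cells, scaled to the plate median, robust z-score for each replicate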
- Scale: robust z-score: higher = more LDL uptake after knockdown
- Call rule: 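Active when two or more replicates show a robust z-score above 2 or below -2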
In all, the deposit lists about 22,000 reagents; this is a part drawn at random. Over the whole deposit, about 1,510 (6.9%) were called active. 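Active includes knockdowns raising or lowering LDL uptake; positive z-scores mean more uptake, negative mean less.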 Unmarked entries are inactive.

Depletion of CATSPERE resulted in: robust z-score, replicate 1 = 7.8 (active); robust z-score, replicate 2 = 8.84; robust z-score, replicate 3 = 7.01.
Depletion of TAAR1 resulted in: robust z-score, replicate 1 = -1.11; robust z-score, replicate 2 = -1.65; robust z-score, replicate 3 = -1.41.
SMARCA2 gave robust z-score, replicate 1 = 2.57 (active); robust z-score, replicate 2 = 3.06; robust z-score, replicate 3 = 2.05.
With knock-down of IFI6 the results were robust z-score, replicate 1 = 3.11 (active); robust z-score, replicate 2 = 2.55; robust z-score, replicate 3 = 2.55.
Against LINGO1 the deposit lists robust z-score, replicate 1 = -1.2; robust z-score, replicate 2 = -1.41; robust z-score, replicate 3 = -1.26.
TNIP2 showed robust z-score, replicate 1 = 0.304; robust z-score, replicate 2 = 0.671; robust z-score, replicate 3 = 0.694.
Silencing of CASP1 gave: robust z-score, replicate 1 = 2.62 (active); robust z-score, replicate 2 = 4.4; robust z-score, replicate 3 = 3.65.
After knock-down of NCAM1, the screen gave robust z-score, replicate 1 = -0.476; robust z-score, replicate 2 = -0.303; robust z-score, replicate 3 = 0.987.
After knock-down of LOC441470 (retired record), the record shows robust z-score, replicate 1 = 0.85; robust z-score, replicate 2 = 0.281; robust z-score, replicate 3 = 0.178.
Against MYO7B the deposit lists robust z-score, replicate 1 = 0.469; robust z-score, replicate 2 = 0.321; robust z-score, replicate 3 = 0.181.
Silencing of FSTL5 resulted in: robust z-score, replicate 1 = 0.356; robust z-score, replicate 2 = 0.311; robust z-score, replicate 3 = 0.123.
With knock-down of C11orf40, the screen gave robust z-score, replicate 1 = 1.84; robust z-score, replicate 2 = 0.804; robust z-score, replicate 3 = 1.88.
LOC401025 (retired record) gave robust z-score, replicate 1 = -1.5; robust z-score, replicate 2 = -1.81; robust z-score, replicate 3 = -1.16.
For ZYX, the entry reads robust z-score, replicate 1 = 1.45; robust z-score, replicate 2 = 0.892; robust z-score, replicate 3 = 2.07.
MRTO4 gave robust z-score, replicate 1 = -1.21; robust z-score, replicate 2 = 0.914; robust z-score, replicate 3 = 0.273.
Knock-down of SOX4 came out at: robust z-score, replicate 1 = 0.539; robust z-score, replicate 2 = 0.396; robust z-score, replicate 3 = -0.399.

2 neighbouring records from above, quoted:
MYO7B — robust z-score, replicate 1: 0.469; robust z-score, replicate 2: 0.321; robust z-score, replicate 3: 0.181
FSTL5 — robust z-score, replicate 1: 0.356; robust z-score, replicate 2: 0.311; robust z-score, replicate 3: 0.123
